# Results of single-concentration screens

Measurements from “University of Dundee, Small-Polar-MMV Screening Library” (2021), ChEMBL document CHEMBL3988442.

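Whole-parasite assay of Trypanosoma brucei over 72 hours; the read-out is not stated. Compounds at 30 µM. Direction is inferred from retests: higher values go with stronger inhibition. Values scatter widely below zero; nearly all retest evidence comes from the higher of the two concentrations used. About 64,000 compounds were tested under these conditions; 1.5% (about 940) showed 50% or more at least once.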

Each number is a percent effect as filed. The record does not define 0% and 100%; most values in the screen are far below 50% and negative numbers occur (in some assays of this library far below -100). Compounds were drawn at random from those tested, without regard to their results.

SMILES,percent effect
CC1=C[C@@H](CN2CCOCC2)[C@H](C(C)C)C[C@H]1Cc1nnc(C)o1,60.87
Cn1nc(C(=O)N2CCCC2)c(F)c1NC(=O)Cc1ccccc1,-11.25
COc1ccccc1CNC(=O)CN(C)C(C)c1ccon1 (stereo not given),-13.47
O=C(c1sccc1C1CC1)N1CCN(c2cnccn2)CC1,4.057
CCCn1nc2c(cc1=O)CN(CCS(C)(=O)=O)CC2,15.47
CCc1n[nH]c(C2CN(Cc3csc(COC)n3)CCO2)n1 (stereo not given),-110.9
Cc1ncc2c(n1)CN(CC(=O)Nc1nnc(C)s1)CC2,-21.44
CS(=O)(=O)N1CCc2ccc(=O)n(CC3CCOCC3)c2CC1,-37.74
[H][C@]12CCN(S(=O)(=O)c3ccc(C)cc3)[C@@]1([H])[C@@H](NC(=O)c1n[nH]cc1Cl)C2,4.765
CCOCC1c2c(ncn2C)CCN1C(=O)c1cscn1 (stereo not given),-15.44
COCCn1c(-c2cccc(OC)c2)cnc1NC(=O)NC(C)C,-11.31
Cc1cccc(CN2CCC3(CC2)CN(c2cccnc2)C(=O)CO3)n1.O=C(O)C(F)(F)F.O=C(O)C(F)(F)F,-42.19
Cc1nc(CN2CCN(C(=O)C(c3ccccc3C)N(C)C)CC2)no1 (stereo not given),-12.9
O=C1N(Cc2cccc(F)c2F)CCCC1(O)CNCc1ccccn1 (stereo not given),7.013
COC(=O)c1cccn1C1CCN(C(=O)c2c(C)noc2C)CC1,-31.92
[H][C@@]12CCCCCN(C(C)=O)[C@@]1([H])[C@H](c1cccc(F)c1)CN2C(=O)COC,-56.83
Cc1nccc(N2CCC(=O)N(CC3CC3)C(C(C)C)C2)n1 (stereo not given),-31.26
COCCN1CCCC(CCCc2ccccn2)(C(N)=O)C1 (stereo not given),7.25
CCNC(=O)N1CCCCC1CCNS(C)(=O)=O (stereo not given),4.878
CC(=O)N1CCc2nc(C3CCN(c4ncccn4)C3)ncc2C1 (stereo not given),-28.24
COc1ccccc1C(=O)N(Cc1nc(C)cs1)CC1CCCO1 (stereo not given),-14.46
O=C(NC[C@H]1OC[C@@H](NC2COC2)[C@@H]1O)Nc1ccccc1,-16.54
C=C1c2ccccc2C(=O)N1CCC(=O)N1CCNC(=O)C1,-5.353
Fc1ccc2c(c1)C1(CCNCC1)CC2OCC1CC1 (stereo not given),-60.49
Cc1ccc2c(ccn2CCC(=O)O)c1,-21.28
Cc1cnn(Cc2ccc(NC(=O)N3CCCCC3CO)cc2)c1 (stereo not given),-34.28
O=C1CCCN1Cc1nnn2c1CN(c1ncccn1)CCC2,-48.53
NC(=O)c1ccc(C(=O)N2CCCCC2C2OCCO2)cc1 (stereo not given),-7.225
Cn1ncc2c(=O)[nH]c(CN3CCCC3CCc3ccccc3)nc21 (stereo not given),-7.143
Cc1cccc(CN2CCC3(CCN(c4ncccn4)C3)C2=O)c1 (stereo not given),-14.13
COCc1c(Br)cccc1NC(=O)CC(F)(F)F,-6.859
Cn1cccc1C(=O)NC1(C(=O)NCC2CC2)CCCC1,-15.53
COc1ccc(CNC(C)c2ccc(Cl)cc2)c(OC)c1OC (stereo not given),15.36
Cn1ncc(Cl)c1C(=O)NCCN1CCC(O)(c2ccc(F)cc2)CC1,-0.8996
CCCN1CCC(CC(=O)N(C)CC(=O)c2ccc(O)cc2)CC1,-73.57
CO[C@@H]1CC[C@@H](NC(=O)c2ccc(OCCN3CCCC3)cc2)[C@H]1O,2.532
Cc1nnc(CCNC(=O)C2CC(=O)N(C(C)(C)C)C2)s1 (stereo not given),-42.65
CCC(C)N(Cc1ccc(C)cc1)Cc1c[nH]c(C)n1 (stereo not given),-5.357
CCc1cc2c(N3CCCC(c4ccn[nH]4)C3)ncnc2s1 (stereo not given),-48.08
CCOC(=O)C1CN(C(=O)COC)Cc2ncn(CC)c21 (stereo not given),-33.56
CN1C(=O)CO[C@H](c2ccc(NC(=O)NC(C)(C)C)cc2)[C@H]1CO,-2.664
CCN(Cc1ccc2c(c1)OCO2)c1ncc(S(N)(=O)=O)s1,-50.8
[H][C@@]12CCC(=O)N(CCc3c[nH]cn3)[C@]1([H])CCN(c1ncc(F)cn1)C2,20.71
Cn1ncnc1-c1ccnc(NCCCc2ccncc2)n1,-11.94
Cl.Cl.O=C(NCc1cncc2c1CCN(Cc1ccccc1)C2)C1CC1,-51.82
COCC(=O)N1CCC2(CCc3ccc(F)cc32)CC1.Cl,-107.7
COc1ccc2oc(-c3cn(C)nc3C)c(O)c(=O)c2c1,-10.11
O=C(c1ccc(=O)[nH]n1)N1CCC(CN2CCOCC2)CC1,0.922
O=C(O)C(F)(F)F.[H][C@@]12CN(C(=O)CCOC)C[C@]1([H])C(=O)N(Cc1cccc(C)n1)C2,12.75
CCOC(=O)c1c(NC(=O)CN2CCN(C(C)=O)CC2)sc2c1CCC2,12.03
Cc1cc(C(F)(F)F)nc(N(C)Cc2c(C)noc2C)n1,-87.6
CC(C)(C)c1ncc2c(n1)CN(C(=O)c1ccc3[nH]cnc3c1)C2,-33.29
CCCOC1CCCN(C(=O)c2ccnnc2)C1 (stereo not given),-28.57
CCNC(=O)C1CCN(c2cc(-c3ccccc3)nc3ccnn23)C1 (stereo not given),19.87
O=C(O)C(F)(F)F.[H][C@@]12CCCO[C@]1([H])[C@@H](OCc1ccncc1)CN2C(=O)CC1CCCC1,-16.6
Cn1cc(NC(=O)CNC(=O)N2CCN(c3ccccc3)CC2)cn1,3.9
CC(NC(=O)CCOc1ccccc1Cl)c1nnc2n1CCC2 (stereo not given),9.605
O=C(c1cn(-c2cc(N3CCSCC3)ncn2)cn1)N1CCOCC1,-18.67
COc1ccc(OC)c(-n2cnnc2CN)c1,9.288
[H][C@]12CC[C@]([H])(CN(CC(=O)N(C)C)C1)N(Cc1cccc(Cl)c1Cl)C2,-219.9
CCN1CCCC(c2c(-c3ccccc3)ncn2Cc2csc(N)n2)C1 (stereo not given),-37.04
Cc1cc(C)cc(CN2CCCC2c2noc(C)n2)c1 (stereo not given),-17.82
CC(C)Oc1cccc(C(=O)C2CCCN(S(=O)(=O)C(C)C)C2)c1 (stereo not given),-17.12
CN(C)CCOCc1nnc2n1CCN(CC1CC1)CC2.O=C(O)C(F)(F)F.O=C(O)C(F)(F)F,-12.93
COc1ccc(C(=O)NCC(c2cccn2C)N2CCCC2)c(OC)c1 (stereo not given),43.93
O=C(Nc1ccc(-c2cnc(NCCO)nc2)cc1)[C@@H]1CCCCN1,53.19
[H][C@]12CCN[C@@]1([H])CN(C(=O)CCC(C)C)C2,-1.295
CC(C)Cc1ncc2c(n1)CN(c1cc(NC3CC3)nc(N)n1)C2,-28.63
CNC(=O)c1ccc(OC2CCN(S(C)(=O)=O)CC2)c(Cl)c1,1.334
CC(=O)N1CCCN(CCn2nc3ccccn3c2=O)CC1,-59.39
CN(CC(=O)N1CCOC(CCc2ccccc2)C1)Cc1ccccn1 (stereo not given),-63.75
Cc1nc(CN2CCOCC23CCN(c2ccc(C#N)cc2)CC3)cs1.O=C(O)C(F)(F)F,-44.48
CCc1nc2n(n1)CC(NCc1noc(-c3ccccc3)n1)CC2 (stereo not given),2.535
Cc1nccn1-c1cc(CNC(=O)CCNC(=O)C2CCCC2)ccn1,30.37
CC(C)c1cn(CC(=O)NC2CC(=O)N(CCc3ccccc3)C2)nn1 (stereo not given),-9.844
COC(=O)c1ncccc1N1CCCC1,-53.26
Cl.NCC1CCCCN1C(=O)Cc1ccc(F)c(F)c1 (stereo not given),1.727
Oc1nc(N2CCOCC2)nc2c1CCN(Cc1ccccc1)CC2,-21.1
Cc1nc(N2CCC(C(O)c3nccn3C)CC2)c2sccc2n1 (stereo not given),-42.22
COC(=O)c1ccccc1NC(=O)c1c(C)cn(C)c1CC(=O)O,-12.78
Cc1ccccc1SC1CCN(C(=O)C2CNC(=O)N2)CC1 (stereo not given),-1.493
c1cnn(CC2CCCCN2Cc2cn3ccsc3n2)c1 (stereo not given),-17.72
O=C(C1CN(CC2CC2)CC12CCOCC2)N1CCOCC1.O=C(O)C(F)(F)F (stereo not given),-29.04
CS(=O)(=O)c1ccc(OCCNCc2cccc(F)c2)cc1,-4.878
Cc1ccc(NC2CCN(C(=O)c3cccnc3N(C)C)CC2)nn1,-21.72
CCNc1ccnc(CN2CCCC2C(=O)Nc2nccs2)c1 (stereo not given),28.37
Cc1ncccc1OC1(C(=O)NCc2noc(C(C)C)n2)CCNCC1,-48.7
CCc1cnc(CN(C)C2CCN(Cc3nnc(C4CC4)n3C)C2)o1 (stereo not given),-9.686
CC(O)CNCc1ccc(OCc2ccc3c(c2)OCCO3)cc1.Cl (stereo not given),-67.49
[H][C@@]12CS(=O)(=O)C[C@]1([H])N(Cc1nc3ccccc3[nH]1)CCN2CC=C(C)C,-172.2
CCc1nnc(NC(=O)CCN2CC=C(c3cnn(C)c3)CC2)s1,-105.8
Cc1noc2nc(C3CCN(Cc4ccncc4)CC3)cc(C(F)F)c12,-30.07
COc1cc(OC)c(C2SCC(=O)Nc3n[nH]cc32)cc1OC (stereo not given),60.77
CCOCc1nc2c(c(N3CCN4CCCC4C3)n1)CCNCC2 (stereo not given),-6.018
CC(Oc1ccccc1C(F)(F)F)C(=O)NS(=O)(=O)C(C)C (stereo not given),28.23